Test results reported in PMC8793873.
No constants are given. Whether binding was seen depends on the method and setting. In cells and extracts the contact can be indirect. These calls come from enrichment with a bait or labelling near it, and not all partners need be listed.

Protein sequences, listed by entry. Tags and fused reporters are not part of them. Lines headed by an entry give the natural chain unless they say otherwise; changes in a name come on top.
UniProt Q9LW26: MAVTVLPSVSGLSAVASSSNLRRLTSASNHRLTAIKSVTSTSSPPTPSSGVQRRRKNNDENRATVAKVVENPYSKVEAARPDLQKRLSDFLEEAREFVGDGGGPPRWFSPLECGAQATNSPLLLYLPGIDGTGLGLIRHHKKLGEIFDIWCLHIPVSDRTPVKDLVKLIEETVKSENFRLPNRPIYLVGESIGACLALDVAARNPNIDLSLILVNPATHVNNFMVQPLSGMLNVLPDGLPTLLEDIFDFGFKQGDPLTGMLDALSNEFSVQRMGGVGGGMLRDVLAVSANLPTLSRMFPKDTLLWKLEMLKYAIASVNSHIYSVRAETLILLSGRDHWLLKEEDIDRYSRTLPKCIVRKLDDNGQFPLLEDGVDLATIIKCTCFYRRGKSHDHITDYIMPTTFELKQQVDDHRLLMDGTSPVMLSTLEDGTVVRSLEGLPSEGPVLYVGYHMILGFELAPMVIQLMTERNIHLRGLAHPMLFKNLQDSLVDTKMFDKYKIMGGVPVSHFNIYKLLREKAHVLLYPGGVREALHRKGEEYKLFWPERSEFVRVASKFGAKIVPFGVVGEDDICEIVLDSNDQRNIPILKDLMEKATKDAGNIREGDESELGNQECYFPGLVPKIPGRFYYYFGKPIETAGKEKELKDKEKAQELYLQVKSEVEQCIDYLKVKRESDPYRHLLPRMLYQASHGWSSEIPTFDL
UniProt Q9FVR6: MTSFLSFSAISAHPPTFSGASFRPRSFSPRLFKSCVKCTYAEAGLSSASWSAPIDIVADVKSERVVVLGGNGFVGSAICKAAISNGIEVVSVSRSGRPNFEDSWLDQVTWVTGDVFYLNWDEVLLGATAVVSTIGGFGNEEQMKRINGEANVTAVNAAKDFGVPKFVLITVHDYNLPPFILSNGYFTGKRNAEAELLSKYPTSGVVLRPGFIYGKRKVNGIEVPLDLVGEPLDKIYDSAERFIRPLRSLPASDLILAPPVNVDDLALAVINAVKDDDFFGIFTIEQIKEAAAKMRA

Target: T1, Fibrillin 2 (FBN2) (Arabidopsis thaliana (endogenous in leaves)) (UniProt O82291)
T1 sequence: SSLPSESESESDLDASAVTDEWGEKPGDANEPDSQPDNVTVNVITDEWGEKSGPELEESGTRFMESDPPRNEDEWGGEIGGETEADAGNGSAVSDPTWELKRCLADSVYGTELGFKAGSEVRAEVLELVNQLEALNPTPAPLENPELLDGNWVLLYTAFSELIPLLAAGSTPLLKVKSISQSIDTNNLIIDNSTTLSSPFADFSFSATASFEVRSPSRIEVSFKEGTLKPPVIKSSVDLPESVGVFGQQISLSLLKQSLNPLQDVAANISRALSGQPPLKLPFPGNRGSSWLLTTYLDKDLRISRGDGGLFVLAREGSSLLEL
Assay: affinity purification with mass spectrometry; Co-IP of endogenous FBN2 with the polyclonal anti-FBN2 antibody from the soluble (stroma) fraction of Arabidopsis chloroplasts; LC-MS/MS; fbn2 mutant as control

Molecule	binding
Fructose bisphosphate aldolase 1 (enzyme, UniProt Q9SJU4 49-399) ASAYADELVKTAKTIASPGHGIMAMDESNATCGKRLASIGLENTEANRQAYRTLLVSAPGLGQYISGAILFEETLYQSTTDGKKMVDVLVEQNIVPGIKVDKGLVPLVGSYDESWCQGLDGLASRTAAYYQQGARFAKWRTVVSIPNGPSALAVKEAAWGLARYAAISQDSGLVPIVEPEIMLDGEHGIDRTYDVAEKVWAEVFFYLAQNNVMFEGILLKPSMVTPGAEATDRATPEQVASYTLKLLRNRIPPAVPGIMFLSGGQSELEATLNLNAMNQAPNPWHVSFSYARALQNTCLKTWGGKEENVKAAQDILLARAKANSLAQLGKYTGEGESEEAKEGMFVKGYTY	binds
Fructose bisphosphate aldolase 2 (enzyme, UniProt Q944G9 47-398) AASSYADELVKTAKTIASPGRGILAMDESNATCGKRLDSIGLENTEANRQAFRTLLVSAPGLGQYVSGAILFEETLYQSTTEGKKMVDVLVEQNIVPGIKVDKGLVPLVGSNNESWCQGLDGLSSRTAAYYQQGARFAKWRTVVSIPNGPSALAVKEAAWGLARYAAISQDSGLVPIVEPEILLDGEHDIDRTYDVAEKVWAEVFFYLAQNNVMFEGILLKPSMVTPGAESKDRATPEQVAAYTLKLLRNRVPPAVPGIMFLSGGQSEVEATLNLNAMNQAPNPWHVSFSYARALQNTCLKTWGGRPENVNAAQTTLLARAKANSLAQLGKYTGEGESEEAKEGMFVKGYTY	binds

Target: T1, Fibrillin 2 (FBN2) (Arabidopsis thaliana (endogenous in leaves))
Assay: affinity purification with mass spectrometry; Co-IP of endogenous FBN2 with a polyclonal anti-FBN2 antibody (Dynabeads Co-Immunoprecipitation Kit) from Arabidopsis thylakoid membranes extracted with 0.01% Triton X-100 in 100 mM phosphate buffer pH 7; LC-MS/MS; proteins also found with fbn2 mutant extracts removed; three independent experiments

Molecule	binding
Diacylglycerol acyltransferase 4 (DGAT4) (from UniProt Q9LW26) (enzyme)	binds
Acclimation of photosynthesis to environment (APE1)	binds
Flavin-reductase-related 1 (from UniProt Q9FVR6)	binds
Fibrillin 1a (FBN1a) (protein, UniProt O81439 56-318) ATDIDDEWGQDGVERVFASSSTVSVADKAIESVEETERLKRSLADSLYGTDRGLSVSSDTRAEISELITQLESKNPTPAPNEALFLLNGKWILAYTSFVGLFPLLSRRIEPLVKVDEISQTIDSDSFTVQNSVRFAGPFSTTSFSTNAKFEIRSPKRVQIKFEQGVIGTPQLTDSIEIPESVEVLGQKIDLNPIKGLLTSVQDTASSVARTISNQPPLKFSLPSDNTQSWLLTTYLDKDLRISRGDGGSVYVLIKEGSSLLNP	binds
NAD(P)H dehydrogenase C1 (enzyme, UniProt Q8GXR9 53-519) AVTNNSGTTEISDNETAPRTYSWPDNKRPRVCILGGGFGGLYTALRLESLVWPEDKKPQVVLVDQSERFVFKPMLYELLSGEVDVWEIAPRFSDLLTNTGIQFLRDRVKTLLPCDHLGVNGSEISVTGGTVLLESGFKIEYDWLVLALGAESKLDVVPGAMELAFPFYTLEDAIRVNEKLSKLERKNFKDGSAIKVAVVGCGYAGVELAATISERLQDRGIVQSINVSKNILTSAPDGNREAAMKVLTSRKVQLLLGYLVQSIKRASNLEEDEGYFLELQPAERGLESQIIEADIVLWTVGAKPLLTKLEPSGPNVLPLNARGQAETDETLRVKGHPRIFALGDSSSLRDSNGKILPTTAQVAFQEADFTGWNIWAAINNRPLLPFRFQNLGEMMTLGRYDAAISPSFIEGLTLEGPIGHAARKLAYLIRLPTDEHRFKVGISWFAKSAVDSIALLQSNLTKVLSGS	binds
NAD(P)H-quinone oxidoreductase subunit S (NdhS) (protein, UniProt Q9T0A4 49-250) AMGKFNLWEVMGGRGLCNGEKGIEKELQRNIEDEQETSKAENNETERESDDSNLSFKVPEDGFEKEMMGLTGGFPGGEKGLKTFIEKNPPPPPPPPPAKQGSDASAVATDKKPKAPKLPLLMPGMIAIVKNQNSPYHMYCGIVQRITDGKAGVLFEGGNWDRLITFRLEELERREKGPPGKNPKSCILEPLIEQMQKEEAAP	binds
NAD(P)-binding Rossmann-fold superfamily protein (At4g35250) (protein, UniProt O65502 65-395) SAAAVNLAPGTPVRPTSILVVGATGTLGRQIVRRALDEGYDVRCLVRPRPAPADFLRDWGATVVNADLSKPETIPATLVGIHTVIDCATGRPEEPIKTVDWEGKVALIQCAKAMGIQKYVFYSIHNCDKHPEVPLMEIKYCTEKFLQESGLNHITIRLCGFMQGLIGQYAVPILEEKSVWGTDAPTRVAYMDTQDIARLTLIALRNEKINGKLLTFAGPRAWTTQEVITLCERLAGQDANVTTVPVSVLRVTRQLTRFFQWTNDVADRLAFSEVLSSDTVFSAPMTETNSLLGVDQKDMVTLEKYLQDYFSNILKKLKDLKAQSKQSDIYF	binds
Fructose bisphosphate aldolase 1 (enzyme, UniProt Q9SJU4 49-399) ASAYADELVKTAKTIASPGHGIMAMDESNATCGKRLASIGLENTEANRQAYRTLLVSAPGLGQYISGAILFEETLYQSTTDGKKMVDVLVEQNIVPGIKVDKGLVPLVGSYDESWCQGLDGLASRTAAYYQQGARFAKWRTVVSIPNGPSALAVKEAAWGLARYAAISQDSGLVPIVEPEIMLDGEHGIDRTYDVAEKVWAEVFFYLAQNNVMFEGILLKPSMVTPGAEATDRATPEQVASYTLKLLRNRIPPAVPGIMFLSGGQSELEATLNLNAMNQAPNPWHVSFSYARALQNTCLKTWGGKEENVKAAQDILLARAKANSLAQLGKYTGEGESEEAKEGMFVKGYTY	binds
Fructose bisphosphate aldolase 2 (enzyme, UniProt Q944G9 47-398) AASSYADELVKTAKTIASPGRGILAMDESNATCGKRLDSIGLENTEANRQAFRTLLVSAPGLGQYVSGAILFEETLYQSTTEGKKMVDVLVEQNIVPGIKVDKGLVPLVGSNNESWCQGLDGLSSRTAAYYQQGARFAKWRTVVSIPNGPSALAVKEAAWGLARYAAISQDSGLVPIVEPEILLDGEHDIDRTYDVAEKVWAEVFFYLAQNNVMFEGILLKPSMVTPGAESKDRATPEQVAAYTLKLLRNRVPPAVPGIMFLSGGQSEVEATLNLNAMNQAPNPWHVSFSYARALQNTCLKTWGGRPENVNAAQTTLLARAKANSLAQLGKYTGEGESEEAKEGMFVKGYTY	binds
Allene oxide synthase (AOS) (enzyme, UniProt Q96242 34-518) SGSETPDLTVATRTGSKDLPIRNIPGNYGLPIVGPIKDRWDYFYDQGAEEFFKSRIRKYNSTVYRVNMPPGAFIAENPQVVALLDGKSFPVLFDVDKVEKKDLFTGTYMPSTELTGGYRILSYLDPSEPKHEKLKNLLFFLLKSSRNRIFPEFQATYSELFDSLEKELSLKGKADFGGSSDGTAFNFLARAFYGTNPADTKLKADAPGLITKWVLFNLHPLLSIGLPRVIEEPLIHTFSLPPALVKSDYQRLYEFFLESAGEILVEADKLGISREEATHNLLFATCFNTWGGMKILFPNMVKRIGRAGHQVHNRLAEEIRSVIKSNGGELTMGAIEKMELTKSVVYECLRFEPPVTAQYGRAKKDLVIESHDAAFKVKAGEMLYGYQPLATRDPKIFDRADEFVPERFVGEEGEKLLRHVLWSNGPETETPTVGNKQCAGKDFVVLVARLFVIEIFRRYDSFDIEVGTSPLGSSVNFSSLRKASF	binds
9-cis-epoxycarotenoid dioxygenase 4 (CCD4) (enzyme, UniProt O49675 35-595) SAVVEERSPITNPSDNNDRRNKPKTLHNRTNHTLVSSPPKLRPEMTLATALFTTVEDVINTFIDPPSRPSVDPKHVLSDNFAPVLDELPPTDCEIIHGTLPLSLNGAYIRNGPNPQFLPRGPYHLFDGDGMLHAIKIHNGKATLCSRYVKTYKYNVEKQTGAPVMPNVFSGFNGVTASVARGALTAARVLTGQYNPVNGIGLANTSLAFFSNRLFALGESDLPYAVRLTESGDIETIGRYDFDGKLAMSMTAHPKTDPITGETFAFRYGPVPPFLTYFRFDSAGKKQRDVPIFSMTSPSFLHDFAITKRHAIFAEIQLGMRMNMLDLVLEGGSPVGTDNGKTPRLGVIPKYAGDESEMKWFEVPGFNIIHAINAWDEDDGNSVVLIAPNIMSIEHTLERMDLVHALVEKVKIDLVTGIVRRHPISARNLDFAVINPAFLGRCSRYVYAAIGDPMPKISGVVKLDVSKGDRDDCTVARRMYGSGCYGGEPFFVARDPGNPEAEEDDGYVVTYVHDEVTGESKFLVMDAKSPELEIVAAVRLPRRVPYGFHGLFVKESDLNKL	binds
Ferredoxin-NADP[H]-oxidoreductase 2 (FNR2) (enzyme, UniProt Q8W493 58-369) ITTETDTPTPAKKVEKVSKKNEEGVIVNRYRPKEPYTGKCLLNTKITADDAPGETWHMVFSHQGEIPYREGQSVGVIADGIDKNGKPHKVRLYSIASSALGDLGNSETVSLCVKRLVYTNDQGETVKGVCSNFLCDLAPGSDVKLTGPVGKEMLMPKDPNATVIMLATGTGIAPFRSFLWKMFFEKHDDYKFNGLAWLFLGVPTTSSLLYQEEFDKMKAKAPENFRVDYAISREQANDKGEKMYIQTRMAQYAAELWELLKKDNTFVYMCGLKGMEKGIDDIMVSLAANDGIDWFDYKKQLKKAEQWNVEVY	binds
NAD(P)-binding Rossmann-fold superfamily protein (Tic62) (protein, UniProt Q8H0U5 64-641) ASSVVTEASPTNLNSKEEDLVFVAGATGKVGSRTVRELLKLGFRVRAGVRSAQRAGSLVQSVKEMKLQNTDEGTQPVEKLEIVECDLEKKDSIQPALGNASVIICCIGASEKEISDITGPYRIDYLATKNLVDAATSAKVNNFILVTSLGTNKFGFPAAILNLFWGVLCWKRKAEEALIESGLNYAIVRPGGMERPTDAYKETHNLTLALDDTLFGGQVSNLQVAELLACMAKNPQLSFSKIVEVVAETTAPLTPIEKLLEKIPSKRPYVPPPKASVATKEVKPVPTKPVTQEPTAPKEDEAPPKEKNVKPRPLSPYASYEDLKPPTSPIPNSTTSVSPAKSKEVDATQVPVEANVVPVPDSTSNVPVVEVKQVEEKKERPLSPYARYENLKPPSSPSPTASSTRKSDSLSPGPTDSDTDKSSTVAKTVTETAVATSVTETSVATSVPETAVATSVTETAAPATSKMRPLSPYAIYADLKPPTSPTPASTGPKEAASVEDNSELPGGNNDVLKTVDGNLNTIPPSTPEAVPVVSSAIDTSLASGDNTAQPKPRPLSPYTMYADMKPPTSPLPSPVTNH	binds
